Reference: the supplement of paper PMC10735217
Where a name gives a salt, the structure may show the parent alone. This is one part of the list. This data set is noisy: repeats of one test often differ as much as different tests do.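 Human kidney-derived cells stably carry a construct in which eight TEAD-binding elements drive luciferase, measured by luminescence in a drug-repurposing library screen. A hit is any compound whose signal exceeds the plate mean by more than five robust Z scores.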

System: HEK293A TEAD-LUC reporter
Experiment: TEAD-luciferase reporter activity (YAP activation), robust Z score vs plate; higher = stronger YAP/TEAD activation
Details: 24 h

Row | SMILES | TEAD-luciferase reporter activity (compound concentration: 200 nM) | TEAD-luciferase reporter activity (compound concentration: 2 uM) | TEAD-luciferase reporter activity (compound concentration: 10 uM)
1 | COc1ccc2c3c1O[C@H]1C(=O)CC[C@H]4[C@@H](C2)N(C)CC[C@]314 [Hydrocodone bitartrate] | inactive: -0.738 | inactive: -1.28 | inactive: -0.337
2 | CN1CC[C@@]23CCCC[C@@H]2[C@@H]1Cc1ccc(O)cc13 [Levorphanol tartrate] | – | inactive: 0.22 | –
3 | CC(=O)O[C@H]1CC[C@@]2(C)C(=CC[C@H]3[C@@H]4CC[C@H](OC(=O)c5ccccc5)[C@@]4(C)CC[C@@H]32)C1 | inactive: 0.425 | inactive: 0.127 | inactive: 1.89
4 | CN1Cc2ccccc2[C@H]2c3cccc4[nH]cc(c34)C[C@H]21 | inactive: 1.06 | inactive: -0.134 | inactive: -1.44
5 | C[C@@H]1CC2=CC(=O)CC[C@@H]2[C@H]2CCC3(C)[C@@H](O)CC[C@H]3[C@@H]21 (some centres not stated) | inactive: -1.71 | inactive: -0.713 | inactive: 0.376
6 | COc1ccc2c(c1)/C(=C/c1c[nH]cn1)C(=O)N2 | inactive: -0.408 | inactive: 1.11 | inactive: 3.73
7 | CCCC(C)C1(CC)C(=O)N=C([O-])NC1=O (configuration not stated) [Pentobarbital sodium] | inactive: 0.0849 | inactive: -1.1 | inactive: -0.677
8 | CCCNC(=O)c1ccc(N(C)[C@H](CN2CC[C@H](O)C2)c2ccccc2)cc1 | inactive: -1.31 | inactive: -0.463 | inactive: 1.53
9 | CC(=O)[O][Hg][c]1cc(C(C)(C)CC(C)(C)C)ccc1O | inactive: 1.19 | inactive: -0.175 | active: 9.04
10 | COc1ccc(CC(C)N)cc1 (configuration not stated) | inactive: -1.75 | inactive: -0.805 | inactive: -0.867
11 | COc1ccc(C(=O)c2c(C)n(CCN3CCOCC3)c3ccccc23)cc1 [pravadoline] | inactive: -0.822 | inactive: -0.941 | inactive: -0.467
12 | CN1C(=O)[C@@H](NC(=O)c2cc3cccc4c3n2CCC4)N=C(c2ccccc2)c2ccccc21 [Tarazepide] | inactive: -1.41 | inactive: 0.622 | inactive: 4.43
13 | CSCC[C@H](NC(=O)[C@H](Cc1ccccc1)NC(=O)CNC(=O)CNC(=O)[C@H](N)Cc1ccc(O)cc1)C(=O)O [Metenkefalin] | inactive: -0.407 | inactive: -0.788 | inactive: -0.598
14 | C[C@H]1[C@@H](OCc2ccc(C(=O)O)cc2)O[C@@H]2O[C@@]3(C)CC[C@H]4[C@H](C)CC[C@@H]1[C@@]24OO3 [Artelinic acid] | inactive: 0.267 | inactive: -0.335 | inactive: -0.839
15 | CC(=O)O[C@H]1C[C@@H]2CC[C@@H]3[C@H](CC[C@@]4(C)[C@H]3C[C@H]([N+]3(C)CCCCC3)[C@@H]4OC(C)=O)[C@@]2(C)C[C@@H]1[N+]1(C)CCCCC1 [Pancuronium Br] | inactive: 1.41 | – | inactive: -0.419
16 | CC(=O)O[C@H]1C[C@@H]2CC[C@@H]3[C@H](CC[C@@]4(C)[C@H]3C[C@H]([N+]3(C)CCCCC3)[C@@H]4OC(C)=O)[C@@]2(C)C[C@@H]1[N+]1(C)CCCCC1 [Pancuronium bromide] | – | inactive: -0.798 | –
17 | COc1ccc2c3c1O[C@H]1C(=O)CC[C@@]4(O)[C@@H](C2)N(C)CC[C@]314 [Oxycodone hydrochloride] | inactive: -2.02 | – | inactive: -0.504
18 | CCC(=O)O[C@@H]1C=C2CC[C@@H]3[C@H](CCC4(C)[C@@H](OC(=O)CC)CC[C@@H]34)C2(C)CC1 (some centres not stated) | inactive: -1.58 | inactive: 0.572 | inactive: 0.738
19 | C[C@@]12C(=O)OC(=O)[C@]1(C)[C@@H]1CC[C@@H]2O1 [Cantharidin] | inactive: 0.52 | inactive: -1.66 | inactive: -1.29
20 | c1ccc(C2(c3ccccc3)OCC(C3CCCCN3)O2)cc1 (configuration not stated) | inactive: -1.26 | inactive: -0.211 | inactive: -0.448
21 | FC(F)(F)c1cccc(C2=CCN(CCc3ccc4ccncc4c3)CC2)c1 | inactive: -1.42 | inactive: 0.113 | inactive: 1.37
22 | COc1ccc(C(=O)Cc2c(CCN(C)C)cc3c(c2OC)OCO3)c(C(=O)O)c1OC | inactive: -0.0976 | inactive: -0.559 | inactive: -0.623
23 | CCCCSc1ccc(C(SCCN(C)C)c2ccccc2)cc1 (configuration not stated) | inactive: 0.41 | inactive: 0.0693 | inactive: -1.24
24 | CC(C)c1cccc(C(C)C)c1OCCNCCO | inactive: -1.52 | inactive: -0.815 | inactive: -0.836
25 | CCCCCCCCCC(=O)O[C@H]1CC[C@H]2[C@@H]3CCC4=CC(=O)CC[C@@H]4[C@H]3CCC12C (some centres not stated) [Nandrolone decanoate] | inactive: -0.67 | inactive: -0.00146 | inactive: -1.43
26 | C[C@@H]1[C@H](O)[C@@H](C)/C=C/C=C/CC/C=C/C=C/C=C/C=C/[C@H](O[C@@H]2O[C@H](C)[C@@H](O)[C@H](N)[C@@H]2O)C[C@@H]2O[C@](O)(C[C@@H](O)[C@H](O)CC[C@@H](O)C[C@@H](O)C[C@@H](O)CC(=O)O[C@H]1C)C[C@H](O)[C@H]2C(=O)O [Nystatin] | inactive: -1.25 | inactive: 0.263 | inactive: 2.61

Reformatted: results already given.
Row	SMILES	TEAD-luciferase reporter activity (compound concentration: 200 nM)	TEAD-luciferase reporter activity (compound concentration: 2 uM)	TEAD-luciferase reporter activity (compound concentration: 10 uM)
13	CSCC[C@H](NC(=O)[C@H](Cc1ccccc1)NC(=O)CNC(=O)CNC(=O)[C@H](N)Cc1ccc(O)cc1)C(=O)O [Metenkefalin]	inactive: -0.407	inactive: -0.788	inactive: -0.598
14	C[C@H]1[C@@H](OCc2ccc(C(=O)O)cc2)O[C@@H]2O[C@@]3(C)CC[C@H]4[C@H](C)CC[C@@H]1[C@@]24OO3 [Artelinic acid]	inactive: 0.267	inactive: -0.335	inactive: -0.839
15	CC(=O)O[C@H]1C[C@@H]2CC[C@@H]3[C@H](CC[C@@]4(C)[C@H]3C[C@H]([N+]3(C)CCCCC3)[C@@H]4OC(C)=O)[C@@]2(C)C[C@@H]1[N+]1(C)CCCCC1 [Pancuronium Br]	inactive: 1.41	–	inactive: -0.419
16	CC(=O)O[C@H]1C[C@@H]2CC[C@@H]3[C@H](CC[C@@]4(C)[C@H]3C[C@H]([N+]3(C)CCCCC3)[C@@H]4OC(C)=O)[C@@]2(C)C[C@@H]1[N+]1(C)CCCCC1 [Pancuronium bromide]	–	inactive: -0.798	–
17	COc1ccc2c3c1O[C@H]1C(=O)CC[C@@]4(O)[C@@H](C2)N(C)CC[C@]314 [Oxycodone hydrochloride]	inactive: -2.02	–	inactive: -0.504
18	CCC(=O)O[C@@H]1C=C2CC[C@@H]3[C@H](CCC4(C)[C@@H](OC(=O)CC)CC[C@@H]34)C2(C)CC1 (some centres not stated)	inactive: -1.58	inactive: 0.572	inactive: 0.738
